# Test results from PubChem BioAssay (NCATS).
# This is one part of the list. These are further read-outs of the screen, such as a control signal, another cell line or another target. No call is given for them. For some of these results: Compounds called inactive in the main read-out are mostly missing here. For some of these results: The note in brackets gives the kind of curve behind each potency; many fits are weak.
# How the values were obtained:
# [1] = S16 Schwann cell PMP22 intronic element beta-lactamase assay (AID 624044); settings: S16 rat Schwann cells, PMP22 element beta-lactamase FRET, 24 h; measured here: 460 nm blue channel
# Outline: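 Beta-lactamase reporter under a PMP22 intronic regulatory element in stable S16 rat Schwann cells; 24 h compound exposure. 460 nm blue signal normalized between DMSO (0%) and potassium clavulanate, with 535 nm FRET tracking viability; curves classed by r2 and response.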
# [2] = A High-Content qHTS Against Drug Library for the Identification of Small Molecules that Inhibit DYT1 Early Onset Primary Dystonia-Associated Cell Pathology (AID 1645839); settings: HEK293 Flp-In EGFP-delE TorsinA, punctate imaging, 48 h; measured here: cell count cytotoxicity
# Outline: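 Cells were seeded and left for 24 h, then dosed with compound alongside tetracycline induction of mutant EGFP-TorsinA. They were incubated for 48 h, fixed in 4% paraformaldehyde, permeabilized and imaged for mislocalization (%pathology) and cell count.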
# [3] = qHTS drug screen for cell cycle checkpoint inhibitors in PARPi-resistant BRCA-mutant ovarian cancer cell lines. (AID 1963452); settings: PEO1/OlaR viability, CellTiter-Glo luminescence, 96 h
# Outline: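 PEO1, PEO4 and PEO1/OlaR ovarian cancer cells, 600 per well, exposed 96 h at 37C to a dilution series. Viability read by CellTiter-Glo luminescence, normalized to DMSO and empty wells; activity summarized as Z-AUC.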
# [4] = qHTS for identification of novel therapeutic agents for treatment of microphthalmiaassociated transcription factor (MiT) renal cell carcinoma (RCC) (AID 1963991); settings: CellTiter-Glo, 48 h; for z-score: stronger effect = lower value
# Outline: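 Three TFE3-fusion RCC cell lines (UOK109, UOK124, UOK145), 500 cells/well, were exposed to the 1912-compound MIPE 4.0 library for 48 hours at 37 C. Viability was read by CellTiter-Glo luminescence, normalised to DMSO (100%) and empty wells (0%), with 11-concentration curve fits.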
# [5] = NCATS anti-infectives library activity on the primary C. elegans qHTS viability assay (AID 1745855); settings: C. elegans worm area imaging
# Outline: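 Titration-based screen in worms: eggs hatched overnight in M9, L1 larvae fed TOP10 capsules in S medium with compound, incubated 21 °C for 7 days; fluorescent objects gated by size and intensity at days 0, 3 and 7.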
# [6] = qHTS assay for small molecule antagonists of peroxisome proliferator-activated receptor delta signaling (AID 588535); settings: HEK293T PPARd-UAS-bla, beta-lactamase FRET ratio, 18 h; 460 nm channel;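 further: cells co-treated with a PPAR-delta agonist as stimulator during compound exposure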
# Outline: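 Beta-lactamase reporter read-out (405 nm excitation, 460/530 nm emission) after CCF4 loading for 2 hrs at RT. HEK293T PPAR-delta-UAS-bla cells, 2% charcoal/dextran FBS, compounds for 18 hrs at 37 C. Hill fit gave IC50 and efficacy.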
# [7] = measured here: PEO1 parental viability
# [8] = TFE3-RCC UOK109 viability, measured here: UOK109 Z-AUC
# [9] = TFE3-RCC viability, measured here: UOK124 Z-AUC
# [10] = TFE3-RCC viability, measured here: UOK145 Z-AUC
smiles,measurement,setting,value
COC(=O)C1=C(C)NC(C)=C(C(=O)OCCCN2CCC(c3ccccc3)(c3ccccc3)CC2)C1c1cccc([N+](=O)[O-])c1 (stereo not given),AC50,[1],"22.4 µM [falling, single point]"
same,AC50,[2],"0.708 µM [falling, full curve, poor fit]"
same,AC50,[3]; [7],"19.5 µM [falling, partial curve]"
same,AC50,[3]; measured here: PEO4 viability,"12.3 µM [falling, partial curve]"
CC(=O)Oc1cc2c(s1)CCN(C(C(=O)C1CC1)c1ccccc1F)C2 (stereo not given),AC50,[2],"12.6 µM [falling, single point]"
same,z-score,[4]; [8],-0.0349
same,z-score,[4]; [9],0.636
same,z-score,[4]; [10],0.565
C1CCC(C(CC2CCCCN2)C2CCCCC2)CC1 (stereo not given),AC50,[1],"7.94 µM [falling, partial curve, poor fit]"
same,AC50,[2],"3.98 µM [falling, full curve, poor fit]"
same,AC50,"[5]; day 7, measured here: worm number","0.0459 µM [falling, full curve, poor fit]"
same,AC50,"[5]; day 7, measured here: worm area, day 3","25.8 µM [falling, single point]"
same,AC50,[3]; [7],"15.5 µM [falling, partial curve]"
same,AC50,[3]; measured here: PEO4 viability,"5.49 µM [falling, partial curve]"
same,z-score,[4]; [8],0.442
same,z-score,[4]; [9],-1.02
same,AC50,"[4]; TFE3-RCC viability, measured here: UOK124 cell viability","0.935 µM [falling, full curve, poor fit]"
same,z-score,[4]; [10],-0.269
same,AC50,"[4]; TFE3-RCC viability, measured here: UOK145 cell viability","23.5 µM [falling, partial curve]"
CC(=O)SC[C@@H](C)C(=O)N1CCC[C@H]1C(=O)N[C@@H](Cc1ccccc1)C(=O)O,AC50,[2],"12.6 µM [rising, single point]"
same,z-score,[4]; [8],0.96
same,z-score,[4]; [9],0.513
same,z-score,[4]; [10],0.827
CCCCC(CC)COC(=O)c1ccccc1C(=O)O (stereo not given),max response,[6],52.9%
same,AC50,[2],"31.6 µM [falling, single point]"

# Rewritten as tab-separated lines: entries from further up
smiles	measurement	setting	value
C1CCC(C(CC2CCCCN2)C2CCCCC2)CC1 (stereo not given)	AC50	[5]; day 7, measured here: worm area, day 3	25.8 µM [falling, single point]
same	AC50	[3]; [7]	15.5 µM [falling, partial curve]
